Read-outs that look alike come from different tables or passages of the source. These are yes or no findings as the source states them, for the method shown. For part of these data: A result given as binding can be weak or reduced; the word gives no strength. For part of these data: Where a sequence is shown, tags or fusion partners need not be part of it. For part of these data: Binding seen in cells or lysates may run through a third protein.
T1: GST-Fy-2 (Ppp1r21) (human) (UniProt Q6ZMI0)
T1 sequence: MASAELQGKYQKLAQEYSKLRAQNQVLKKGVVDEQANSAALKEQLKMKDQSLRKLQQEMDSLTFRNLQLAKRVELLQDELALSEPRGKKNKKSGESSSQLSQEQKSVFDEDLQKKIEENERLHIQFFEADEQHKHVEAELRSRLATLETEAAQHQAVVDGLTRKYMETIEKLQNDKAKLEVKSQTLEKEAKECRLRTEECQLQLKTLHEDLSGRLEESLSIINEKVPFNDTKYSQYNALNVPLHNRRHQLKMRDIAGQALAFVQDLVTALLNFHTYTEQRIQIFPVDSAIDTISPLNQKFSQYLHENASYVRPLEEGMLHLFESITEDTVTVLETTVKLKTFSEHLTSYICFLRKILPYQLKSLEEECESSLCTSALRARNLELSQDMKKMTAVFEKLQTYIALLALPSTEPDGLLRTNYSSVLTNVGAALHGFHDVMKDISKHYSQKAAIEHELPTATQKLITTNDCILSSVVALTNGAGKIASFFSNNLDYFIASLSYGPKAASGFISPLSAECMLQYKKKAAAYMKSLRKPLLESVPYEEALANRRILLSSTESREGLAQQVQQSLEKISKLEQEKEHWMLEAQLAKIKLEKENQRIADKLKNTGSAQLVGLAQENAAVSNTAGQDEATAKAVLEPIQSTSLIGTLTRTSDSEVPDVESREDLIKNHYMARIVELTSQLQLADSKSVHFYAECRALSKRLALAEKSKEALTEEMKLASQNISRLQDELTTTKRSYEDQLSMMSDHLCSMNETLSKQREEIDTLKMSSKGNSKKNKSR

T2: His6-Fy-1 (Tbck), subunit of the reconstituted FERRY complex (human) (UniProt Q8TEA7)
T2 sequence: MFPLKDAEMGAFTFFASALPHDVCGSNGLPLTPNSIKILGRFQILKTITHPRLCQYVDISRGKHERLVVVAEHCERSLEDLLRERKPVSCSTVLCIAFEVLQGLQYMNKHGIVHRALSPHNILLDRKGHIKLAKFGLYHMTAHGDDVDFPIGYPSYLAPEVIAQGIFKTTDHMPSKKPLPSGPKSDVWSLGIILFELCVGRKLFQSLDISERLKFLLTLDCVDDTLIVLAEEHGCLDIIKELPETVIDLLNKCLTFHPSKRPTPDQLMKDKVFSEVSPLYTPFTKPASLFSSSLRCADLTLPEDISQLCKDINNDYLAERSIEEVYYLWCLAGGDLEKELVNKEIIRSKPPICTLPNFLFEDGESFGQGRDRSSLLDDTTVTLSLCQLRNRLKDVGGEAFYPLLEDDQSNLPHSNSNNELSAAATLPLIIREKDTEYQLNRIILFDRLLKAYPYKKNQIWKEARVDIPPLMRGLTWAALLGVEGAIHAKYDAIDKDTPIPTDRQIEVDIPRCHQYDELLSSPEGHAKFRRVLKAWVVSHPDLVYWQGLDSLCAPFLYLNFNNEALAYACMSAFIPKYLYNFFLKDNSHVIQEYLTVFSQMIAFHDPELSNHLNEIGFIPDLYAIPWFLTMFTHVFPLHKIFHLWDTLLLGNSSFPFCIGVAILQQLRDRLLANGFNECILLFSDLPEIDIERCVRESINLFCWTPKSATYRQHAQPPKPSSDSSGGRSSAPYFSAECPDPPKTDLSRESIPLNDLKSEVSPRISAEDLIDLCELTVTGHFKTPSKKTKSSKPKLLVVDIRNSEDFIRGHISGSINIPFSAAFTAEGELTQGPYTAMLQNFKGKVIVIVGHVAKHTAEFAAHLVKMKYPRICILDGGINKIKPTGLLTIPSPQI


Assays:
[1] = molecular target: T1, GST-Fy-2 (Ppp1r21) (human); experiment: pull-down
[2] = molecular target: T2, His6-Fy-1 (Tbck), subunit of the reconstituted FERRY complex (human); experiment: mass photometry
[3] = molecular target: GST-Rab4; experiment: pull-down
[4] = molecular target: GST-Rab11; experiment: pull-down
[5] = molecular target: GST-Rab7; experiment: pull-down
[6] = molecular target: GST-Rab4; experiment: pull-down; remark: listed apart in the source
[7] = molecular target: GST-Rab11; experiment: pull-down; remark: listed apart in the source
[8] = molecular target: GST-Rab7; experiment: pull-down; remark: listed apart in the source
[9] = molecular target: Ppp1r21 (Fy-2) from bovine brain cytosol (bovine (endogenous in bovine brain cytosol)); experiment: SEC + other: anion exchange chromatography

Binder | binding [1] | binding [2] | binding [3] | binding [4] | binding [5] | binding [6] | binding [7] | binding [8] | binding [9]
Cryzl1 (Fy-4) from bovine brain cytosol (protein, UniProt Q59A28 1-349) MKGLYFQQSSTNEEITFVFQERENLPVTEDNYVKLQVKACALSQINTKLLAEMKMEKEFFPVGREVAGIVLDVGSKVSFFQPDDEVVGILPLDSEDPGLCEAVRVHEHYLVHKPEKVTWTEAAGTIRDGLRVYTALHYLSHLSPGKSVLIMDGASALGTIAIQLAHHRGAKVISTACSLEDKQFLERFRPPIARVIDVSNGKAHVAESCLEETGGLGVDIVLDAGVRLYSKDDEPAEKLQLLPHKHDIITLLGVGGHWVTTEENLQLDPPDSHCLFLKGAAVAFLNDEVWNLSNVQQGKYLCILKDVMEKLSTGVFRPQLDEPIPLYEAKVTMEVVQKNQGRKKQVVQF |  |  |  |  |  |  |  |  | binds
Fy-2 (Ppp1r21), in vitro translated (protein, UniProt Q6ZMI0 1-780, [35S]-methionine-labelled) MASAELQGKYQKLAQEYSKLRAQNQVLKKGVVDEQANSAALKEQLKMKDQSLRKLQQEMDSLTFRNLQLAKRVELLQDELALSEPRGKKNKKSGESSSQLSQEQKSVFDEDLQKKIEENERLHIQFFEADEQHKHVEAELRSRLATLETEAAQHQAVVDGLTRKYMETIEKLQNDKAKLEVKSQTLEKEAKECRLRTEECQLQLKTLHEDLSGRLEESLSIINEKVPFNDTKYSQYNALNVPLHNRRHQLKMRDIAGQALAFVQDLVTALLNFHTYTEQRIQIFPVDSAIDTISPLNQKFSQYLHENASYVRPLEEGMLHLFESITEDTVTVLETTVKLKTFSEHLTSYICFLRKILPYQLKSLEEECESSLCTSALRARNLELSQDMKKMTAVFEKLQTYIALLALPSTEPDGLLRTNYSSVLTNVGAALHGFHDVMKDISKHYSQKAAIEHELPTATQKLITTNDCILSSVVALTNGAGKIASFFSNNLDYFIASLSYGPKAASGFISPLSAECMLQYKKKAAAYMKSLRKPLLESVPYEEALANRRILLSSTESREGLAQQVQQSLEKISKLEQEKEHWMLEAQLAKIKLEKENQRIADKLKNTGSAQLVGLAQENAAVSNTAGQDEATAKAVLEPIQSTSLIGTLTRTSDSEVPDVESREDLIKNHYMARIVELTSQLQLADSKSVHFYAECRALSKRLALAEKSKEALTEEMKLASQNISRLQDELTTTKRSYEDQLSMMSDHLCSMNETLSKQREEIDTLKMSSKGNSKKNKSR |  |  | no binding | no binding | no binding | no binding | no binding | no binding | 
Fy-3 (C12orf4), in vitro translated (protein, UniProt Q9NQ89 1-552, [35S]-methionine-labelled) MKKNRERFCNREREFVYKFKVGSQCLELRVPLKFPVQENASHLHGRLMLLHSLPCFIEKDLKEALTQFIEEESLSDYDRDAEASLAAVKSGEVDLHQLASTWAKAYAETTLEHARPEEPSWDEDFADVYHDLIHSPASETLLNLEHNYFVSISELIGERDVELKKLRERQGIEMEKVMQELGKSLTDQDVNSLAAQHFESQQDLENKWSNELKQSTAIQKQEYQEWVIKLHQDLKNPNNSSLSEEIKVQPSQFRESVEAIGRIYEEQRKLEESFTIHLGAQLKTMHNLRLLRADMLDFCKHKRNHRSGVKLHRLQTALSLYSTSLCGLVLLVDNRINSYSGIKRDFATVCQECTDFHFPRIEEQLEVVQQVVLYARTQRRSKLKESLDSGNQNGGNDDKTKNAERNYLNVLPGEFYITRHSNLSEIHVAFHLCVDDHVKSGNITARDPAIMGLRNILKVCCTHDITTISIPLLLVHDMSEEMTIPWCLRRAELVFKCVKGFMMEMASWDGGISRTVQFLVPQSISEEMFYQLSNMLPQIFRVSSTLTLTSKH |  |  | no binding | no binding | no binding | no binding | no binding | no binding | 

Second part, the binder after the results:

binding [1] | binding [2] | binding [3] | binding [4] | binding [5] | binding [6] | binding [7] | binding [8] | binding [9] | Binder
binds | binds |  |  |  |  |  |  |  | His6-Fy-5 (Gatd1) (natural protein, human, UniProt Q8NB37 1-220, looked up) MASERLPNRPACLLVASGAAEGVSAQSFLHCFTMASTAFNLQVATPGGKAMEFVDVTESNARWVQDFRLKAYASPAKLESIDGARYHALLIPSCPGALTDLASSGSLARILQHFHSESKPICAVGHGVAALCCATNEDRSWVFDSYSLTGPSVCELVRAPGFARLPLVVEDFVKDSGACFSASEPDAVHVVLDRHLVTGQNASSTVPAVQNLLFLCGSRK
 |  | no binding | no binding | no binding | no binding | no binding | no binding |  | Fy-5 (Gatd1), in vitro translated (protein, UniProt Q8NB37 1-220, [35S]-methionine-labelled) MASERLPNRPACLLVASGAAEGVSAQSFLHCFTMASTAFNLQVATPGGKAMEFVDVTESNARWVQDFRLKAYASPAKLESIDGARYHALLIPSCPGALTDLASSGSLARILQHFHSESKPICAVGHGVAALCCATNEDRSWVFDSYSLTGPSVCELVRAPGFARLPLVVEDFVKDSGACFSASEPDAVHVVLDRHLVTGQNASSTVPAVQNLLFLCGSRK
 |  | no binding | no binding | no binding | no binding | no binding | no binding |  | Fy-4 (Cryzl1), in vitro translated (protein, UniProt O95825 1-349, [35S]-methionine-labelled) MKGLYFQQSSTDEEITFVFQEKEDLPVTEDNFVKLQVKACALSQINTKLLAEMKMKKDLFPVGREIAGIVLDVGSKVSFFQPDDEVVGILPLDSEDPGLCEVVRVHEHYLVHKPEKVTWTEAAGSIRDGVRAYTALHYLSHLSPGKSVLIMDGASAFGTIAIQLAHHRGAKVISTACSLEDKQCLERFRPPIARVIDVSNGKVHVAESCLEETGGLGVDIVLDAGVRLYSKDDEPAVKLQLLPHKHDIITLLGVGGHWVTTEENLQLDPPDSHCLFLKGATLAFLNDEVWNLSNVQQGKYLCILKDVMEKLSTGVFRPQLDEPIPLYEAKVSMEAVQKNQGRKKQVVQF

— publication doi:10.1101/2021.06.20.449167 (bioRxiv, 2021)
